Among the data in patent publication US20220275417A1 are binding values, retold here.

For this experiment, the target named is CD4 on the surface of HEK293 cells transfected with pCAGGS-CD4-myc (UniProt P01730). Briefly: immunofluorescence staining of fixed CD4-expressing HEK293 cells, anti-FLAG-AF488 secondary.

Results are given in words; binding and its absence hold for the method and conditions named. Some binding calls cover weakened binding; strength is not graded here. Sequences can lack the tags named with a protein.

B1: anti-CD4-FLAG-barcode 1 (VHH)
VHH: EVQLVESGGGSVQPGGSLTLSCGTSGRTFNVMGWFRQAPGKEREFVAAVRWSSTGIYYTQYADSVKSRFTISRDNAKNTVYLEMNSLKPEDTAVYYCAADTYNSNPARWDGYDFRGQGTQVTVSS
On to B1, for which the binding result is reported as “binds”.
